PubChem BioAssay AID1159584 – Peter MacCallum Cancer Centre – 2016
The deposit covers about 18,000 reagents; shown is a random part of them. Not all columns of the deposit are shown. Not given: the amount of reagent, the time to read-out.

Assay: 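Knock-downs that harm CDH1-null cells more than parental MCF10A cells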 (primary screen)
System: human MCF10A breast epithelial cells, parental and CDH1-null
Reagent: siRNA against human genes
Detection: 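Cell viability by CellTiter-Glo ATP luminescence, each line scaled to the mean of mock wells across plates, then CDH1-null over parental ratio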
Scale: CDH1-null / parental viability ratio: higher = CDH1-null cells survive relatively better than parental

target gene | CDH1-null / parental viability ratio
GLRA4 (glycine receptor alpha 4 (pseudogene)) | 1.33
YTHDF3 (YTH N6-methyladenosine RNA binding protein F3) | 1.13
APLP1 (amyloid beta precursor like protein 1) | 0.96
MARK3 (microtubule affinity regulating kinase 3) | 0.93
TARDBP (TAR DNA binding protein) | 1.21
PPL (periplakin) | 0.88
ARHGEF19 (Rho guanine nucleotide exchange factor 19) | 1.13
VRK2 (VRK serine/threonine kinase 2) | 0.97
AFAP1 (actin filament associated protein 1) | 1.18
TRAM1L1 (translocation associated membrane protein 1 like 1) | 1.25
MYRIP (myosin VIIA and Rab interacting protein) | 1.59
PCDHA3 (protocadherin alpha 3) | 1.04
SLC2A5 | 1.31
KRT13 (keratin 13) | 1.07
ULK2 (unc-51 like autophagy activating kinase 2) | 1.16
FMOD (fibromodulin) | 1.1
SBSPON (somatomedin B and thrombospondin type 1 domain containing) | 1.06
MRPS26 (mitochondrial ribosomal protein S26) | 1.45
CSTB (cystatin B) | 0.87
ESYT3 (extended synaptotagmin 3) | 1.08
RECQL5 (RecQ like helicase 5) | 0.87
DIAPH3 (diaphanous related formin 3) | 1.05
AHCY (adenosylhomocysteinase) | 1.1
CTPS1 (CTP synthase 1) | 0.98
MPP4 (MAGUK p55 scaffold protein 4) | 0.71
IRAK4 (interleukin 1 receptor associated kinase 4) | 0.96
CHAMP1 (chromosome alignment maintaining phosphoprotein 1) | 0.81
CST7 (cystatin F) | 0.82

Part of the list above, set out differently:
target gene,CDH1-null / parental viability ratio
RECQL5 (RecQ like helicase 5),0.87
DIAPH3 (diaphanous related formin 3),1.05
AHCY (adenosylhomocysteinase),1.1
CTPS1 (CTP synthase 1),0.98
MPP4 (MAGUK p55 scaffold protein 4),0.71
IRAK4 (interleukin 1 receptor associated kinase 4),0.96
CHAMP1 (chromosome alignment maintaining phosphoprotein 1),0.81
CST7 (cystatin F),0.82

Additional entries follow:
target gene | CDH1-null / parental viability ratio
PDCD1LG2 (programmed cell death 1 ligand 2) | 0.96
KIF16B (kinesin family member 16B) | 1
SPTY2D1 (SPT2 chromatin protein domain containing 1) | 0.81
MCL1 (MCL1 apoptosis regulator, BCL2 family member) | 1.09
BCDIN3D (BCDIN3 domain containing RNA methyltransferase) | 0.86
PSD4 (pleckstrin and Sec7 domain containing 4) | 0.82
CLOCK (clock circadian regulator) | 0.94
HMCES (5-hydroxymethylcytosine binding, ES cell specific) | 0.93
THSD1 (thrombospondin type 1 domain containing 1) | 0.91
ACOT1 (acyl-CoA thioesterase 1) | 0.9
ELOVL1 (ELOVL fatty acid elongase 1) | 0.69
MMP27 (matrix metallopeptidase 27) | 1.16
TAS2R9 (taste 2 receptor member 9) | 1.14
ZNF445 (zinc finger protein 445) | 0.63
ELP3 (elongator acetyltransferase complex subunit 3) | 0.87
SIPA1 (signal-induced proliferation-associated 1) | 1.1
H2BC18 (H2B clustered histone 18) | 1
GJB3 (gap junction protein beta 3) | 0.87
